Source: PubChem BioAssay AID256 (DTP/NCI, 2004)
The list is a part of this screen's results and no random one: it gathers tests that were run many times, whatever their T/C, doses with no T/C, and many T/C values between a quarter and a half above the control. Further doses and runs are listed elsewhere. T/C: endpoint of the treated group in % of that of the vehicle group. Some doses have a count of surviving animals in place of a T/C: the source holds a T/C of zero for them, seemingly a mark for toxic or unscored doses. Some doses without a T/C left all or most animals alive at the check, yet need not have been tolerated: survival well below the control is almost never listed, so the zero probably covers shortened survival too. Counts of survivors are from the toxicity check (mostly the fifth day) where no day follows; animals may have died later. Schedule codes are those of the source, read here as Q, the interval in days (D) or hours (H), X, the number of doses. Some entries were tested several times; their values stand side by side, smallest first. For survival time, this PubChem deposit counts one and a half times the control or more as active, and values a quarter to a half above the control carry no call in these data; other NCI protocols may use other cut-offs. Signs of the kind (2×) say how often a value occurs here.

System: CD2F1 mice, L1210 leukemia ip, survival T/C
Assay: NCI In Vivo Anticancer Drug Screen. Data for tumor model L1210 Leukemia (intraperitoneal) in CD2F1 (CDF1) mice
Conditions: higher T/C = longer survival
Method in brief: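 Vehicle-treated tumor-bearing mice served as controls (C) for compound-treated mice (T). Reported figure is T divided by C.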

[1] = T/C endpoint: mean survival time, dose: 400.0 mg/kg/injection, schedule: Q01DX001 (ip), vehicle: saline with Tween-80
[2] = T/C endpoint: mean survival time, dose: 100.0 mg/kg/injection, schedule: Q01DX009 (ip), vehicle: saline with Tween-80
[3] = T/C endpoint: mean survival time, dose: 100.0 mg/kg/injection, schedule: Q01DX001 (ip), vehicle: saline with Tween-80
[4] = T/C endpoint: mean survival time, dose: 400.0 mg/kg/injection, schedule: Q01DX009 (ip), vehicle: saline with Tween-80
[5] = T/C endpoint: mean survival time, dose: 200.0 mg/kg/injection, schedule: Q04DX003 (ip), vehicle: saline with Tween-80
[6] = T/C endpoint: mean survival time, dose: 400.0 mg/kg/injection, schedule: Q04DX003 (ip), vehicle: saline with Tween-80
[7] = T/C endpoint: mean survival time, dose: 100.0 mg/kg/injection, schedule: Q04DX003 (ip), vehicle: saline with Tween-80

Question: Which T/C (T/C endpoint: mean survival time, dose: 6.25 mg/kg/injection, schedule: Q01DX009 (ip), vehicle: saline) does the source give for `CN1CCN(c2ccc3nc(-c4ccc5nc(-c6ccc(O)cc6)[nH]c5c4)[nH]c3c2)CC1` here?
Answer: 130 % of control

Question: And the T/C (T/C endpoint: mean survival time, dose: 12.5 mg/kg/injection, schedule: Q01DX009 (ip), vehicle: saline)?
Answer: 142 % of control

Question: What about the T/C (T/C endpoint: mean survival time, dose: 25.0 mg/kg/injection, schedule: Q01DX009 (ip), vehicle: saline) of the same compound?
Answer: 142 % of control

Question: And the T/C (T/C endpoint: mean survival time, dose: 100.0 mg/kg/injection, schedule: Q01DX009 (ip), vehicle: saline)?
Answer: 134 % of control

Question: And the survivor count (T/C endpoint: mean survival time, dose: 200.0 mg/kg/injection, schedule: Q01DX009 (ip), vehicle: saline)?
Answer: 4 of 6 and 5 of 6

Question: And the T/C (T/C endpoint: median survival time, dose: 12.5 mg/kg/injection, schedule: Q01DX009 (ip), vehicle: saline)?
Answer: 129 % of control

Question: And the T/C (T/C endpoint: median survival time, dose: 25.0 mg/kg/injection, schedule: Q01DX009 (ip), vehicle: saline, evaluated on day 30)?
Answer: 135 % of control

Question: And the T/C (T/C endpoint: median survival time, dose: 25.0 mg/kg/injection, schedule: Q01DX009 (ip), vehicle: saline, evaluated on day 60)?
Answer: 125 and 137 % of control

Question: And the T/C (T/C endpoint: median survival time, dose: 37.0 mg/kg/injection, schedule: Q01DX005 (ip), vehicle: saline)?
Answer: 143 % of control

Question: And the T/C (T/C endpoint: median survival time, dose: 44.0 mg/kg/injection, schedule: Q01DX009 (ip), vehicle: saline, evaluated on day 45)?
Answer: 197 and 555 % of control

Question: And the T/C (T/C endpoint: median survival time, dose: 44.0 mg/kg/injection, schedule: Q01DX009 (ip), vehicle: saline, evaluated on day 60)?
Answer: 127 and 722 % of control

Question: What about the T/C (T/C endpoint: median survival time, dose: 50.0 mg/kg/injection, schedule: Q01DX009 (ip), vehicle: saline) of the same compound?
Answer: 142 % of control

Question: What about the T/C (T/C endpoint: median survival time, dose: 67.0 mg/kg/injection, schedule: Q01DX009 (ip), vehicle: saline, evaluated on day 45) of the same compound?
Answer: 555 % of control (2×)

Question: And the T/C (T/C endpoint: median survival time, dose: 67.0 mg/kg/injection, schedule: Q01DX009 (ip), vehicle: saline, evaluated on day 60)?
Answer: 139 and 722 % of control

Question: What about the survivor count (T/C endpoint: median survival time, dose: 75.0 mg/kg/injection, schedule: Q01DX005 (iv), vehicle: saline) of the same compound?
Answer: 0 of 6

Question: What about the T/C (T/C endpoint: median survival time, dose: 100.0 mg/kg/injection, schedule: Q01DX009 (ip), vehicle: saline, evaluated on day 30) of the same compound?
Answer: 344 % of control

Question: What about the T/C (T/C endpoint: median survival time, dose: 100.0 mg/kg/injection, schedule: Q01DX009 (ip), vehicle: saline, evaluated on day 45) of the same compound?
Answer: 555 % of control (2×)

Question: What about the T/C (T/C endpoint: median survival time, dose: 100.0 mg/kg/injection, schedule: Q01DX009 (ip), vehicle: saline, evaluated on day 60) of the same compound?
Answer: 185, 391, 618, 722 % of control

Question: And the T/C (T/C endpoint: median survival time, dose: 125.0 mg/kg/injection, schedule: Q01DX009 (ip), vehicle: saline, evaluated on day 45)?
Answer: 555 % of control (2×)

Question: What about the T/C (T/C endpoint: median survival time, dose: 125.0 mg/kg/injection, schedule: Q01DX009 (ip), vehicle: saline, evaluated on day 60) of the same compound?
Answer: 156 and 722 % of control

Question: And the survivor count (T/C endpoint: median survival time, dose: 150.0 mg/kg/injection, schedule: Q01DX005 (iv), vehicle: saline)?
Answer: 0 of 6

Question: And the survivor count (T/C endpoint: median survival time, dose: 200.0 mg/kg/injection, schedule: Q01DX009 (ip), vehicle: saline)?
Answer: 6 of 10

Question: What about the survivor count (T/C endpoint: median survival time, dose: 300.0 mg/kg/injection, schedule: Q01DX005 (ip), vehicle: saline) of the same compound?
Answer: 2 of 6

Question: And the survivor count (T/C endpoint: median survival time, dose: 300.0 mg/kg/injection, schedule: Q01DX005 (iv), vehicle: saline)?
Answer: 0 of 6

Question: For `COc1ccc(OC)c(NC(=O)Nc2cc([N+](=O)[O-])ccc2Cl)c1`, which survivor count [1] is on record?
Answer: 6 of 6

Question: How did the survivor count [2] turn out when `O=C(c1ccccc1)C(C(c1ccccc1)N1CCOCC1)N1CCOCC1` (configuration not stated) was run?
Answer: 6 of 6

Question: `O=c1[nH][nH]c(=O)c2c1oc1c(=O)[nH][nH]c(=O)c12` was tested. Which survivor count [3] did it give?
Answer: 2 of 6

Question: How did the survivor count [4] turn out when `CC(C)(C)C1CCC(OC(=O)C(=O)O)CC1` (configuration not stated) was run?
Answer: 6 of 6

Question: How did the survivor count (T/C endpoint: mean survival time, dose: 400.0 mg/kg/injection, schedule: Q01DX009 (ip), vehicle: acetone) turn out when `C=CC(=C)CCC=C(C)C` was run?
Answer: 2 of 6

Question: Which results are given for `CN(C)CC(C)(C)C(=O)c1ccccc1`?
Answer: survivor count (T/C endpoint: mean survival time, dose: 200.0 mg/kg/injection, schedule: Q04DX002 (ip), vehicle: saline): 0 of 3; survivor count (T/C endpoint: mean survival time, dose: 400.0 mg/kg/injection, schedule: Q04DX002 (ip), vehicle: saline): 0 of 3

Question: For `Cc1ccc(NC(=O)ON(C)C)cc1`, which survivor count (T/C endpoint: mean survival time, dose: 200.0 mg/kg/injection, schedule: Q04DX002 (ip), vehicle: other) is on record?
Answer: 0 of 3

Question: And the survivor count (T/C endpoint: mean survival time, dose: 400.0 mg/kg/injection, schedule: Q04DX002 (ip), vehicle: other)?
Answer: 0 of 3

Question: What does the source list for `COc1ccc(OC)c(NC(=O)Oc2cccc(NC(C)=O)c2)c1`?
Answer: survivor count [2]: 6 of 6; T/C [4]: 140 % of control

Question: Which survivor count (T/C endpoint: mean survival time, dose: 400.0 mg/kg/injection, schedule: Q01DX009 (ip), vehicle: water) does the source give for `CC(=O)Oc1cccc2c1C(=O)c1c(OC(C)=O)cccc1C2=O` here?
Answer: 6 of 6

Question: With `COCC/C(COC)=N\N=C(/CCOC)COC` as the compound, how does the survivor count (T/C endpoint: mean survival time, dose: 400.0 mg/kg/injection, schedule: Q01DX009 (ip), vehicle: saline) read?
Answer: 1 of 6

Question: `CC(=O)OC1CC2(O)C3CCC4CC(O)CCC4(C)C3CCC2(C)C1C1=CC(=O)OC1` (configuration not stated) was tested. Which survivor count [1] did it give?
Answer: 2 of 6

Question: What does the source list for `C/C=C/CNc1ccc(C)cc1`?
Answer: survivor count [5]: 2 of 6; survivor count [6]: 2 of 6

Question: With `CCCCCCCCCCCCCC[n+]1ccccc1` as the compound, how does the survivor count (T/C endpoint: mean survival time, dose: 0.5 mg/kg/injection, schedule: Q04DX003 (ip), vehicle: saline sonified) read?
Answer: 2 of 6

Question: What about the survivor count (T/C endpoint: mean survival time, dose: 1.0 mg/kg/injection, schedule: Q04DX003 (ip), vehicle: saline sonified) of the same compound?
Answer: 1 of 6

Question: What about the survivor count (T/C endpoint: mean survival time, dose: 5.0 mg/kg/injection, schedule: Q04DX003 (ip), vehicle: saline with Tween-80) of the same compound?
Answer: 0 of 6

Question: What about the survivor count (T/C endpoint: mean survival time, dose: 10.0 mg/kg/injection, schedule: Q04DX003 (ip), vehicle: saline with Tween-80) of the same compound?
Answer: 1 of 6

Question: What about the survivor count (T/C endpoint: mean survival time, dose: 20.0 mg/kg/injection, schedule: Q04DX003 (ip), vehicle: saline with Tween-80) of the same compound?
Answer: 1 of 6

Question: What about the survivor count [7] of the same compound?
Answer: 0 of 6

Question: And the survivor count [5]?
Answer: 0 of 6

Question: What about the survivor count [6] of the same compound?
Answer: 0 of 6

Question: For `CCOC(=O)C1=C(C)/C(=C/c2[n-]c(C)c(C(=O)OCC)c2C)N=C1C.CCOC(=O)C1=C(C)/C(=C/c2[n-]c(C)c(C(=O)OCC)c2C)N=C1C.[Co+2]`, which survivor count [3] is on record?
Answer: 6 of 6

Question: With `CCN1CCN(CC)C1c1ccccc1` as the compound, how does the survivor count [4] read?
Answer: 3 of 6

Question: For `CN/N=C/c1ccc(O)c(OC)c1`, which survivor count [4] is on record?
Answer: 2 of 6

Question: Which survivor count (T/C endpoint: mean survival time, dose: 500.0 mg/kg/injection, schedule: Q01DX010 (ip), vehicle: saline) does the source give for `O=P(OCc1ccccc1)(N(CCCl)CCCl)N1CCCCC1` (configuration not stated) here?
Answer: 0 of 6

Question: Which survivor count (T/C endpoint: median survival time, dose: 25.0 mg/kg/injection, schedule: Q04DX003 (ip), vehicle: saline with Tween-80) does the source give for `OCCNCc1ccc(OCc2ccccc2)c(OCc2ccccc2)c1` here?
Answer: 3 of 3

Question: And the survivor count (T/C endpoint: median survival time, dose: 200.0 mg/kg/injection, schedule: Q04DX003 (ip), vehicle: saline with Tween-80)?
Answer: 0 of 3

Question: Which survivor count (T/C endpoint: mean survival time, dose: 200.0 mg/kg/injection, schedule: Q04DX003 (ip), vehicle: saline) does the source give for `CN1CC=C(N2CCOCC2)CC1` here?
Answer: 6 of 6

Question: And the survivor count (T/C endpoint: mean survival time, dose: 400.0 mg/kg/injection, schedule: Q04DX003 (ip), vehicle: saline)?
Answer: 3 of 6

Question: With `[Cl][Pt+2][Cl].[NH-]c1ccccc1F.[NH-]c1ccccc1F` as the compound, how does the survivor count (T/C endpoint: mean survival time, dose: 250.0 mg/kg/injection, schedule: Q04DX003 (ip), vehicle: saline with Tween-80) read?
Answer: 3 of 3

Question: `Cn1c(-c2ccccc2)cc(=O)cc1-c1ccccc1` was tested. Which survivor count [6] did it give?
Answer: 2 of 6

Question: For `CCCCCCCCCCCCOC(=O)C[n+]1cccc(C(=O)NCc2ccccc2)c1`, which survivor count [7] is on record?
Answer: 0 of 6

Question: What about the survivor count [5] of the same compound?
Answer: 0 of 6

Question: What about the survivor count [6] of the same compound?
Answer: 0 of 6

Question: Which results are given for `Nc1c2c(nn1-c1ccccc1)C(=O)N(CCc1ccccc1)C2`?
Answer: survivor count [7]: 6 of 6; survivor count [5]: 6 of 6

Question: With `CC[C@@]1(OC(=O)C(N)CCC(=O)O)C(=O)OCc2c1cc1n(c2=O)Cc2cc3ccccc3nc2-1` (some centres not stated) as the compound, how does the T/C (T/C endpoint: median survival time, dose: 13.69 mg/kg/injection, schedule: Q04DX002 (ip), vehicle: water) read?
Answer: 125 % of control

Question: And the T/C (T/C endpoint: median survival time, dose: 20.54 mg/kg/injection, schedule: Q04HX004 (iv), vehicle: water)?
Answer: 144 % of control (2×)

Question: What about the T/C (T/C endpoint: median survival time, dose: 27.39 mg/kg/injection, schedule: Q04DX002 (ip), vehicle: water) of the same compound?
Answer: 125 % of control

Question: How did the survivor count [4] turn out when `O=c1cc(-c2ccccc2)[nH]c(-c2ccccc2)c1` was run?
Answer: 5 of 6
